Results on one molecule are retold here after PMC9132907.

Sequences of proteins named here, by UniProt entry; tags and fusion partners are left off. A change or cut given only in a name is not applied to a line headed by its entry.
UniProt O15205: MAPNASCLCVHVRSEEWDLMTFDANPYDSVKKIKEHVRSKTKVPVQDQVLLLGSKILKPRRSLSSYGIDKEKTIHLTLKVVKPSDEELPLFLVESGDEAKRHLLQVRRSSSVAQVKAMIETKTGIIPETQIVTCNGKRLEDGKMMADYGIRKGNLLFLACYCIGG

These are yes or no findings as the source states them, for the method shown. In cells and extracts the contact can be indirect. Binding can be weak; no strength is given. Sequences can lack the tags named with a protein.

The target in this assay is HA-FAT10ΔGG (UniProt O15205). Kind of assay: co-IP; PANC-1 and BxPC-3 cells co-transfected with Flag-FOXM1 and HA-FAT10 or HA-FAT10ΔGG; Flag-FOXM1 bound to the HA-tagged protein detected.

B1: Flag-FOXM1 (protein, UniProt Q08050 1-763)
chain: MKTSPRRPLILKRRRLPLPVQNAPSETSEEEPKRSPAQQESNQAEASKEVAESNSCKFPAGIKIINHPTMPNTQVVAIPNNANIHSIITALTAKGKESGSSGPNKFILISCGGAPTQPPGLRPQTQTSYDAKRTEVTLETLGPKPAARDVNLPRPPGALCEQKRETCADGEAAGCTINNSLSNIQWLRKMSSDGLGSRSIKQEMEEKENCHLEQRQVKVEEPSRPSASWQNSVSERPPYSYMAMIQFAINSTERKRMTLKDIYTWIEDHFPYFKHIAKPGWKNSIRHNLSLHDMFVRETSANGKVSFWTIHPSANRYLTLDQVFKPLDPGSPQLPEHLESQQKRPNPELRRNMTIKTELPLGARRKMKPLLPRVSSYLVPIQFPVNQSLVLQPSVKVPLPLAASLMSSELARHSKRVRIAPKVLLAEEGIAPLSSAGPGKEEKLLFGEGFSPLLPVQTIKEEEIQPGEEMPHLARPIKVESPPLEEWPSPAPSFKEESSHSWEDSSQSPTPRPKKSYSGLRSPTRCVSEMLVIQHRERRERSRSRRKQHLLPPCVDEPELLFSEGPSTSRWAAELPFPADSSDPASQLSYSQEVGGPFKTPIKETLPISSTPSKSVLPRTPESWRLTPPAKVGGLDFSPVQTSQGASDPLPDPLGLMDLSTTPLQSAPPLESPQRLLSSEPLDLISVPFGNSSPSDIDVPKPGSPEPQVSGLAANRSLTEGLVLDTMNDSLSKILLDISFPGLDEDPLGPDNINWSQFIPELQ
On to B1, for which the binding result is on record as “binds”.
